The subject of this data set is recombinant 6xHis-tag HTRA2 and its protein interaction partners in homogenized porcine retina. As to the kind of experiment: Co-immunoprecipitation (Co-IP) of HTRA2 protein interaction partners, quantitative LC-MS/MS (iBAQ, volcano plot vs CTRL beads). Also noted: species or system house swine (Sus scrofa). The following applies: 5 mg porcine retina homogenate, 2 µg HTRA2 + 10 µg compound, n = 3, p < 0.01; log2 fold change > 1.5 vs CTRL; HTRA2 alone 31. On the procedure: The retina extraction and homogenization were performed as already described in previous publications. The use of animal by-products of house swine for scientific research purposes was approved by the Kreisverwaltung Mainz-Bingen in Germany (Identification Code: DE 07 315 0006 21, approved on 13 January 2014). In brief, retinal tissues were extracted from freshly removed porcine eye bulbs (house swine, Sus scrofa domestica Linnaeus, n = 30) provided by the local slaughterhouses (Landmetzgerei Harth, Stadecken-Elsheim, Germany). […] Afterwards, the samples were pooled and the protein concentration was determined using a Pierce Bicinchoninic Acid (BCA) Protein Assay Kit (Thermo Fisher Scientific, Rockford, IL, USA) according to the manufacturer’s protocol, which provided 5 mg aliquots for further analysis.
The recombinant protein HTRA2 with a C-terminal 6xHis-tag motif (Novoprotein Scientific INC., Summit, NJ, USA) and 40 μL HisPurTM Ni-NTA magnetic beads (Thermo Fisher Scientific, Rockford, IL, USA) were spiked into 5 mg homogenized porcine retina. […] The protein concentration of each eluate fraction was determined as described above. […]

For the molecule `O=C1C(=Cc2ccc(-c3ccccc3[N+](=O)[O-])o2)C(=O)N(c2ccccc2)C(=S)N1c1ccccc1` [UCF-101, reference compound], the “Number of significant protein interaction partners of HTRA2” value is recorded as 13.

Turning to “ASGYTFTNYGLSWVR [CDR, synthetic peptide encoding a complementary-determining region 1 (CDR1) of polyclonal antibody molecules]”, the “Number of significant protein interaction partners of HTRA2” value is given as 23.

For the origin of these results see paper PMC8427973, “Regulation of the HTRA2 Protease Activity by an Inhibitory Antibody-Derived Peptide Ligand and the Influence on HTRA2-Specific Protein Interaction Networks in Retinal Tissues” (Biomedicines, 2021).
